Data published in patent US6362197B1, “Compositions and method for treatment of cough” (Cardiome Pharma Corp., priority 1998, dated 2002).

Legend:
[1] = system: citric acid-induced cough responses; assay: Duration of anti-tussive effect against citric acid-induced cough, pre-treatment at various times; type: in vivo, guinea pig; details: 10 mg/ml aerosol
[2] = system: citric acid-induced cough responses; assay: Therapeutic aerosol treatment after induction of cough by citric acid aerosol; type: in vivo, guinea pig; details: aerosol 10 mg/ml for 5 min, given 2 minutes after citric acid exposure began
[3] = system: citric acid-induced cough responses; assay: Citric acid aerosol-induced cough in conscious guinea-pigs, 5 min aerosol pre-treatment; type: in vivo, guinea-pig; details: for Mean latency of cough: time to onset of first cough after initiation of citric acid aerosol: 5 min pre-treatment; for Mean latency of cough: time to onset of first cough after initiation of citric acid aerosol / Total coughs: number of coughs over 15 min following initiation of 1M citric acid aerosol: mean ± SEM

`CCN(CC)CC(=O)Nc1c(C)cccc1C` [Lidocaine, lidocaine, reference compound] was tested. Which “Effect on latency of cough onset (in words)” value ([1]; all pre-treatment times) did it give?
Its value is “None of the lidocaine pre-treatments affected the latency of cough onset”.

And the “Inhibition of cough responses compared with matched vehicle (in words)” value ([1]; any of the time points (5 min to 4 hours))?
Its value is “did not result in a significant inhibition”.

What about the “Inhibition of number of cough responses between t=2 and t=10 minutes” value [2] of the same molecule?
Its value is 39.1%.

And the “Inhibition of total number of cough responses during the 15 minute observation period compared with matched vehicle” value ([2]; t=0 to t=15 min)?
Its value is 32.4%.

What about the “Percentage reduction of the cough response compared with matched vehicle control groups” value (“Percentage reduction” for short) ([3]; aerosol conc. 0.1 mg/ml) of the same molecule?
The value was “(9.3%)”.

And the “Mean latency of cough: time to onset of first cough after initiation of citric acid aerosol” value (shortened to “Mean latency of cough: time”) ([3]; aerosol conc. 0.1 mg/ml)?
Its value is 88 ± 20 s.

What about the “Total coughs: number of coughs over 15 min following initiation of 1M citric acid aerosol” value ([3]; aerosol conc. 0.1 mg/ml) of the same molecule?
The value was 27.2 ± 5.3.

And the “Cough frequency (in words)” value ([3]; aerosol conc. 1.0 mg/ml)?
The value was “reduce cough frequency”.

And the “Percentage reduction” value ([3]; aerosol conc. 1.0 mg/ml)?
Its value is “(32.6%)”.

What about the “Mean latency of cough: time” value ([3]; aerosol conc. 1.0 mg/ml) of the same molecule?
Its value is 92 ± 25 s.

And the “Total coughs: number of coughs over 15 min following initiation of 1M citric acid aerosol” value ([3]; aerosol conc. 1.0 mg/ml)?
The value was 19.0 ± 4.3.

And the “Cough frequency (in words)” value ([3]; aerosol conc. 10 mg/ml)?
The value was “reduce cough frequency”.

And the “Latency of cough onset (in words)” value ([3]; aerosol conc. 10 mg/ml)?
The value was “did appear to delay onset of the first cough”.

And the “Percentage reduction” value ([3]; aerosol conc. 10 mg/ml)?
The value was “(40.9%)”.

What about the “Mean latency of cough: time” value ([3]; aerosol conc. 10 mg/ml) of the same molecule?
Its value is 136 ± 21 s.

What about the “Total coughs: number of coughs over 15 min following initiation of 1M citric acid aerosol” value ([3]; aerosol conc. 10 mg/ml) of the same molecule?
Its value is 15.0 ± 3.0.

What about the “Effect on the time course of cough responses” value ([3]; any of the concentrations used (0.1, 1.0, 10 mg/ml)) of the same molecule?
The value was “no significant effect”.
